Source: patent publication US20240261378A1
These are yes or no findings as the source states them, for the method shown. In cells and extracts the contact can be indirect. Some entries that bind do so weakly or less than the wild type. For some of these results: Tags and fused reporters may be left off the sequences shown.

Amino acid sequences for entries named in this document (tags omitted). A change or cut given only in a name is not applied to a line headed by its entry.
UniProt P17931: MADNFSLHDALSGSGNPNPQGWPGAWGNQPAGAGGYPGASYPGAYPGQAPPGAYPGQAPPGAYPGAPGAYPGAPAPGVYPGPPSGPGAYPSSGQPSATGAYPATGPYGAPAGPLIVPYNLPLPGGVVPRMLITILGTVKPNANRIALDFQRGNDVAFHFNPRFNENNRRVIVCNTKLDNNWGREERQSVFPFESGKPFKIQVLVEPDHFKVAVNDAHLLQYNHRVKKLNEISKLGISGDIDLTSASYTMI
UniProt Q9C030: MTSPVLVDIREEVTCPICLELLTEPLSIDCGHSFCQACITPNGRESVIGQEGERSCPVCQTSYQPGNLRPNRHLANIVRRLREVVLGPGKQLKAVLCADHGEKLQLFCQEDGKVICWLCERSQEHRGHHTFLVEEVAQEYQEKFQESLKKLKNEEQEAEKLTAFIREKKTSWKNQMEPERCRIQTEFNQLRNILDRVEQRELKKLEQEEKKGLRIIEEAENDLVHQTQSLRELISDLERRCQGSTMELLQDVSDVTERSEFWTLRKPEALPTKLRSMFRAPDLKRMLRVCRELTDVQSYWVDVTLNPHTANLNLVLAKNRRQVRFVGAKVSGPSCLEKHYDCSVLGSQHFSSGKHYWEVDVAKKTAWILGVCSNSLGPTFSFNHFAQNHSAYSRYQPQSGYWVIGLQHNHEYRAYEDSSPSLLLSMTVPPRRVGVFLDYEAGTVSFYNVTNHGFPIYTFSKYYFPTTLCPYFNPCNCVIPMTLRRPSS
UniProt Q8IYM9: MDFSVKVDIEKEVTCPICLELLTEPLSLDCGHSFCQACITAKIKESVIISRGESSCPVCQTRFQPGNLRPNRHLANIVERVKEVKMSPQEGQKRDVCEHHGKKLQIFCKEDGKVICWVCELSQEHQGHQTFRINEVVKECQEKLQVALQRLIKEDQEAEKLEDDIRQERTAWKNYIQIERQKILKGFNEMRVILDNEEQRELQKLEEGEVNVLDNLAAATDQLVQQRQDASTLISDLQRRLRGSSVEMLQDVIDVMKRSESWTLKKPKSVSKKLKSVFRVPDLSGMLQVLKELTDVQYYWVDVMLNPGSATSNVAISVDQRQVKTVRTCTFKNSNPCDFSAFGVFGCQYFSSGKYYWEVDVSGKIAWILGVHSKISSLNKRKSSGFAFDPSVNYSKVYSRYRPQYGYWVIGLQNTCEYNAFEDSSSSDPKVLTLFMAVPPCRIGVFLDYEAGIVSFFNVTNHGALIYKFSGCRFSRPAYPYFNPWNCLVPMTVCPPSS

Columns and labels:
GST-Galectin-8 (human) = biological target: T1, GST-Galectin-8 (human); assay: GST pull-down of in vitro translated 35S-labelled Myc-HA-TRIM
T1 sequence: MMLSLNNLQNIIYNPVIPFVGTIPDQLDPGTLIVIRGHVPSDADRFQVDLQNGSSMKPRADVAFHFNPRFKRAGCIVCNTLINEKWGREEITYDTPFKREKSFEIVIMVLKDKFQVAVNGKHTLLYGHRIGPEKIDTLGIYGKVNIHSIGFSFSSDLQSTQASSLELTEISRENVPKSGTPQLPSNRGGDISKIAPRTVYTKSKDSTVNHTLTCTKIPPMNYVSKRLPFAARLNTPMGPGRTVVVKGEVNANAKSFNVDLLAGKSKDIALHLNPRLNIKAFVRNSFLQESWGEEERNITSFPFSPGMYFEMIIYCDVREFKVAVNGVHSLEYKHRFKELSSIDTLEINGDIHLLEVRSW

GST-Galectin-3 (human) = GST-Galectin-3 (human) (UniProt P17931); assay: as above

Row | binding (GST-Galectin-8 (human)) | binding (GST-Galectin-3 (human)) | Substance
1 | binds | binds | 35S-Myc-HA-TRIM6 (in vitro translated) (from UniProt Q9C030 1-488)
2 | binds | binds | 35S-Myc-HA-TRIM22 (in vitro translated) (from UniProt Q8IYM9 1-498)
